The assay has as its target brain mitochondrial nitric-oxide synthase (NOS; alpha NOS1 isoform) (rat (endogenous in rat brain mitochondria)) (UniProt P29476). The assay is described as follows: affinity purification with mass spectrometry; NOS1 immunoprecipitated with rabbit polyclonal anti-NOS1 R-20 (C-terminus) on protein-G agarose from digitonin-lysed whole rat brain mitochondria (IP buffer: 150 mM NaCl, 5 mM EDTA, 0.1% Triton X-100, 10 mM HEPES); 2D gel (second dimension 15% or 12.5%), spots absent from the mock gel identified by MALDI-TOF MS.

Protein sequences, listed by entry. Tags and fused reporters are not part of them. Residues count along the entry.
UniProt P29476: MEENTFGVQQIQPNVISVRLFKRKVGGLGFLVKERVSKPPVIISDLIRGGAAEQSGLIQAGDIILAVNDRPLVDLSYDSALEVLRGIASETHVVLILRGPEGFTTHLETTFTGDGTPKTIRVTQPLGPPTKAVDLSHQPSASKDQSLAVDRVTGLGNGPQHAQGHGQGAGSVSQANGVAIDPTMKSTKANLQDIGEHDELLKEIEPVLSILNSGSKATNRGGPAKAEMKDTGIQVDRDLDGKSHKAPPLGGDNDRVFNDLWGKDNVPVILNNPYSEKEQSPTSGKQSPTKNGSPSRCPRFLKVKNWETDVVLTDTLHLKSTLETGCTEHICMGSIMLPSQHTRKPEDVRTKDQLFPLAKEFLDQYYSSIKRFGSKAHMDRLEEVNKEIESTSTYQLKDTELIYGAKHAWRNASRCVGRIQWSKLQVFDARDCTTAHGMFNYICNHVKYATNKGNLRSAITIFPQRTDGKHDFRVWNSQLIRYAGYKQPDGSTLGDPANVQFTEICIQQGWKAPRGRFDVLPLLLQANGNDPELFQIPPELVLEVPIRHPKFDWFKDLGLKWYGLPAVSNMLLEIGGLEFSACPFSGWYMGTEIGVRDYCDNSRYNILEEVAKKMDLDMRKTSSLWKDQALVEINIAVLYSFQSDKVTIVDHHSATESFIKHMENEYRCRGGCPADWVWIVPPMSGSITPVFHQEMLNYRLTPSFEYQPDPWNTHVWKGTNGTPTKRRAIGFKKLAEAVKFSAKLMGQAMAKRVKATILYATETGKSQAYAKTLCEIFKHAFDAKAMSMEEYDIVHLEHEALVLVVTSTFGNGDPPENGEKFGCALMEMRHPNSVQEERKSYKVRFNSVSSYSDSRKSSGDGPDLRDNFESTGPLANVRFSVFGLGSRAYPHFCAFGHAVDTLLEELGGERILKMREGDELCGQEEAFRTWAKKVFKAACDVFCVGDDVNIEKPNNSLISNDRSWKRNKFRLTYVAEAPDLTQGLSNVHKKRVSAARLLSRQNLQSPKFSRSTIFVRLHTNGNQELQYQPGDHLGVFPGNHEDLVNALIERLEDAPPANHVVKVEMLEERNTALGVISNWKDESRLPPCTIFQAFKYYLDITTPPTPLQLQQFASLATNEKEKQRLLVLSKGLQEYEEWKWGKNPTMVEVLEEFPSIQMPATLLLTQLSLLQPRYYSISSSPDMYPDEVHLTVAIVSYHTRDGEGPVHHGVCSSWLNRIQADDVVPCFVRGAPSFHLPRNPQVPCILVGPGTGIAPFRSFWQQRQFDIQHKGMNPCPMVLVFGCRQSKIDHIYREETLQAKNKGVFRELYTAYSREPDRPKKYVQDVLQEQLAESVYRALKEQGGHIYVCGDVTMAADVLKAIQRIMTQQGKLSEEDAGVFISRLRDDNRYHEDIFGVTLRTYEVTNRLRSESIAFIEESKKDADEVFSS
UniProt P10888, residues 23-169: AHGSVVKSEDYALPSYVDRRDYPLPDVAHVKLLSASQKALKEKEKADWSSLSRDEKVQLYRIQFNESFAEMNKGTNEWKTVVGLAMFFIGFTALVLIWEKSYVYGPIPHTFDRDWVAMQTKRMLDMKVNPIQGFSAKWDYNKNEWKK

No constants are given. Whether binding was seen depends on the method and setting. In cells and extracts the contact can be indirect. These calls come from enrichment with a bait or labelling near it, and not all partners need be listed.

With “cytochrome c oxidase subunit IV (from UniProt P10888 23-169)”, the binding result is given as “binds”.

The values are drawn from publication PMC10669843.
